Measurements reported in PubChem BioAssay AID1053208 (Peter MacCallum Cancer Centre, 2014).

Aim: 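Find knock-downs that sensitise mouse osteosarcoma cells to doxorubicin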 (primary screen)
Cells: mouse osteosarcoma cells, early-passage culture from an engineered mouse model of fibroblastic bone tumour
Knock-down reagent: siRNA pool against mouse genes, 40 nM
Timing: about 120 h (48 h before drug, then 72 h with drug)
Challenge: doxorubicin 100 nM for 72 h, roughly 30-40% inhibitory dose
Measurement: 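Luminescent ATP signal taken as viability with or without 100 nM doxorubicin for 72 h; mean of two wells set against non-targeting siRNA and turned into robust z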
Scale: viability z-score with doxorubicin and doxorubicin viability vs non-targeting: higher = more viable cells under doxorubicin; viability z-score without drug: higher = more viable cells with knock-down alone; z-score of drug to no-drug ratio: higher = less drug sensitisation by knock-down
Active means: 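Called active if knock-down leaves viability unchanged without drug (z within -2 to 2) but lowers it with doxorubicin (z at or under -2)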
The deposit covers about 17,000 reagents; this is a part drawn at random. Of all reagents, 788 (4.7%) got an active call. 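Calls rest on z-score classes alone; an extra cut-off of viability at most 70% of control was not applied to them.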 Entries without a mark were called inactive. Reagent sequences are not shown.

no.	gene symbol	combined z-score class	viability z-score with doxorubicin	viability z-score without drug	z-score of drug to no-drug ratio	doxorubicin viability vs non-targeting
1	Gamt	no change with or without drug	1.35	0.17	1.35	1.06
2	Dtx4	no change with or without drug	-1.57	-0.34	-1.35	0.8
3	Map3k3	no change with or without drug	0.9	0.84	0.45	1.02
4	Rsu1	no change with or without drug	-1.57	-0.51	-1.24	0.8
5	Gpx1	no change with or without drug	-0.22	-0.51	0.22	0.92
6	Pld1	no change with or without drug	0.22	0	0.34	0.96
7	Lyplal1	no change with or without drug	0.22	0.51	0	0.96
8	Fam216a	no change with or without drug	-0.11	-1.18	0.9	0.93
9	Pou1f1	no change with or without drug	-0.79	0	-0.67	0.87
10	AL022832	no change with or without drug	-1.12	-0.51	-0.79	0.84
11	Gm38410	no change with or without drug	-0.22	-0.17	0	0.92
12	Pcyt2	low cell count with doxorubicin only (active)	-2.14	1.35	-2.81	0.75
13	Fam181b	no change with or without drug	0.45	1.01	-0.11	0.98
14	Fbxo2	no change with or without drug	-1.12	0	-1.12	0.84
15	Or13n4	no change with or without drug	-1.24	-1.18	-0.45	0.83
16	Mrgprf	no change with or without drug	0.34	-0.17	0.56	0.97
17	Tubgcp3	no change with or without drug	-1.12	-1.52	0	0.84
18	Elf3	high cell count without drug only	0.11	2.19	-1.12	0.95
19	Pgr	no change with or without drug	-0.45	1.52	-1.24	0.9
20	Por	no change with or without drug	1.35	1.85	0.22	1.06
21	Entpd2	no change with or without drug	1.12	0.51	0.9	1.04
22	Serpinb3c	no change with or without drug	1.8	1.35	1.01	1.1
23	Pkd2l1	no change with or without drug	-0.67	-0.67	-0.11	0.88
24	Dsp	no change with or without drug	1.57	0.17	1.69	1.08
25	Aqp7	no change with or without drug	-1.12	-1.52	0	0.84
26	Kbtbd4	no change with or without drug	0.45	1.85	-0.67	0.98
27	Usp24	low cell count with doxorubicin only (active)	-2.02	-1.35	-1.24	0.76
28	Tsga10	no change with or without drug	1.24	-0.17	1.57	1.05
29	Cdk5rap3	no change with or without drug	0.67	-0.84	1.46	1
30	Myo7a	high cell count with doxorubicin only	2.25	0.67	1.91	1.14
31	Pdcd11	no change with or without drug	-0.22	0.17	-0.22	0.92
32	Hoxa5	no change with or without drug	1.24	0.51	1.01	1.05
33	Plcb1	no change with or without drug	0.34	0.67	0	0.97
34	Tbxa2r	no change with or without drug	0	0.34	-0.11	0.94
35	Ear4	high cell count without drug only	1.46	4.38	-1.12	1.07
36	Krtcap3	no change with or without drug	-1.57	-1.01	-0.9	0.8
37	Noc3l	no change with or without drug	0	0	0.11	0.94
38	Tcf20	no change with or without drug	0.34	1.18	-0.34	0.97
39	Tal2	no change with or without drug	-1.57	0.17	-1.69	0.8
40	Arid5b	no change with or without drug	-0.67	0.51	-0.9	0.88
41	Dtx1	no change with or without drug	0.45	0	0.56	0.98
42	Plekhb2	no change with or without drug	0	-0.17	0.22	0.94
43	Sult2a8	no change with or without drug	0.45	-0.17	0.67	0.98
44	Polr1h	no change with or without drug	-0.67	-0.17	-0.45	0.88
45	2610524H06Rik	no change with or without drug	-1.35	-1.35	-0.45	0.82
46	Pcdh11x	no change with or without drug	1.01	0.17	1.01	1.03
47	Glmp	no change with or without drug	-0.79	0.51	-1.01	0.87
48	Wbp11	high cell count with doxorubicin only	2.47	1.69	1.35	1.16
49	Hacl1	high cell count with doxorubicin only	3.15	0.34	3.15	1.22
50	Ssbp2	no change with or without drug	-0.67	-0.51	-0.22	0.88
51	Slc25a35	no change with or without drug	0.11	0.17	0.11	0.95
52	Dpp7	no change with or without drug	-0.67	1.18	-1.35	0.88
53	Tssk4	no change with or without drug	1.35	1.35	0.56	1.06
54	Spry2	no change with or without drug	0.67	0.67	0.34	1
55	Mep1a	no change with or without drug	-1.01	-0.51	-0.67	0.85
56	Csf1	high cell count without drug only	1.01	2.87	-0.67	1.03
57	Pcdhga1	low cell count with doxorubicin only (active)	-2.02	-0.51	-1.69	0.76
58	Ly6h	no change with or without drug	0.11	-0.51	0.56	0.95
59	Ccdc85b	no change with or without drug	0.22	-0.51	0.67	0.96
60	Or5ac24	no change with or without drug	1.69	-0.67	2.47	1.09
61	Tmem119	no change with or without drug	1.57	0.84	1.12	1.08
62	Prlhr	no change with or without drug	1.12	-0.34	1.57	1.04
63	Tmem80	no change with or without drug	0.9	-0.17	1.24	1.02

A run of entries taken from the entries so far, as a working copy:
no.	gene symbol	combined z-score class	viability z-score with doxorubicin	viability z-score without drug	z-score of drug to no-drug ratio	doxorubicin viability vs non-targeting
8	Fam216a	no change with or without drug	-0.11	-1.18	0.9	0.93
9	Pou1f1	no change with or without drug	-0.79	0	-0.67	0.87
10	AL022832	no change with or without drug	-1.12	-0.51	-0.79	0.84
11	Gm38410	no change with or without drug	-0.22	-0.17	0	0.92
12	Pcyt2	low cell count with doxorubicin only (active)	-2.14	1.35	-2.81	0.75
13	Fam181b	no change with or without drug	0.45	1.01	-0.11	0.98
14	Fbxo2	no change with or without drug	-1.12	0	-1.12	0.84
15	Or13n4	no change with or without drug	-1.24	-1.18	-0.45	0.83
16	Mrgprf	no change with or without drug	0.34	-0.17	0.56	0.97
17	Tubgcp3	no change with or without drug	-1.12	-1.52	0	0.84
